For two molecules, binding results are on record in PMC9098485.

By UniProt entry, the sequences of proteins in these tests, tags left out. Residues count along the entry.
UniProt O14672, residues 214-748: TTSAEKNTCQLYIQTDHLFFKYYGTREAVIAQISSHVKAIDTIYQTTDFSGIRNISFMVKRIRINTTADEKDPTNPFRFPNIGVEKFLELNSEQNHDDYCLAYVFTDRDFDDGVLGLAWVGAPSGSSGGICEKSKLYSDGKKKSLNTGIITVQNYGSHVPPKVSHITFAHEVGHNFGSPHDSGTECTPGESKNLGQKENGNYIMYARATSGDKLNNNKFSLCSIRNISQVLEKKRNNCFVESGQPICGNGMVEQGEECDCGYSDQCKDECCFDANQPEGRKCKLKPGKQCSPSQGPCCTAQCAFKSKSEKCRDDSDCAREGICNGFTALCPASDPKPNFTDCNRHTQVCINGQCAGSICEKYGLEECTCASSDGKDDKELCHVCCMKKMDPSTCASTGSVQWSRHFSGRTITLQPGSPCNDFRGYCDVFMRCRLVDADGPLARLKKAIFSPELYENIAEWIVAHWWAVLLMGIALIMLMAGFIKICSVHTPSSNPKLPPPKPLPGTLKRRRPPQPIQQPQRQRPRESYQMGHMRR

These are yes or no findings as the source states them, for the method shown. Binding seen in cells or lysates may run through a third protein. Some entries that bind do so weakly or less than the wild type.

This test has as its target A disintegrin and metalloprotease-10 (ADAM10) (human (endogenous in DU145 and 22Rv-1)) (UniProt O14672). Put plainly: co-IP; protein lysate of DU145 and 22Rv-1 cells; 1.5 ug antibody (ADAM10, EphA3 or ephrin-A5), 4 °C for 12 h, protein A/G agarose magnetic beads; Western blotting; homologous Ig as negative control.

B1: ephrin-A5 (ligand, UniProt P52803 21-203)
chain: QDPGSKAVADRYAVYWNSSNPRFQRGDYHIDVCINDYLDVFCPHYEDSVPEDKTERYVLYMVNFDGYSACDHTSKGFKRWECNRPHSPNGPLKFSEKFQLFTPFSLGFEFRPGREYFYISSAIPDNGRRSCLKLKVFVRPTNSCMKTIGVHDRVFDVNDKVENSLEPADDTVHESAEPSRGEN
With B1, the binding entry is “binds”.

B2: EphA3 (receptor, UniProt P29320 21-983)
chain: ELIPQPSNEVNLLDSKTIQGELGWISYPSHGWEEISGVDEHYTPIRTYQVCNVMDHSQNNWLRTNWVPRNSAQKIYVELKFTLRDCNSIPLVLGTCKETFNLYYMESDDDHGVKFREHQFTKIDTIAADESFTQMDLGDRILKLNTEIREVGPVNKKGFYLAFQDVGACVALVSVRVYFKKCPFTVKNLAMFPDTVPMDSQSLVEVRGSCVNNSKEEDPPRMYCSTEGEWLVPIGKCSCNAGYEERGFMCQACRPGFYKALDGNMKCAKCPPHSSTQEDGSMNCRCENNYFRADKDPPSMACTRPPSSPRNVISNINETSVILDWSWPLDTGGRKDVTFNIICKKCGWNIKQCEPCSPNVRFLPRQFGLTNTTVTVTDLLAHTNYTFEIDAVNGVSELSSPPRQFAAVSITTNQAAPSPVLTIKKDRTSRNSISLSWQEPEHPNGIILDYEVKYYEKQEQETSYTILRARGTNVTISSLKPDTIYVFQIRARTAAGYGTNSRKFEFETSPDSFSISGESSQVVMIAISAAVAIILLTVVIYVLIGRFCGYKSKHGADEKRLHFGNGHLKLPGLRTYVDPHTYEDPTQAVHEFAKELDATNISIDKVVGAGEFGEVCSGRLKLPSKKEISVAIKTLKVGYTEKQRRDFLGEASIMGQFDHPNIIRLEGVVTKSKPVMIVTEYMENGSLDSFLRKHDAQFTVIQLVGMLRGIASGMKYLSDMGYVHRDLAARNILINSNLVCKVSDFGLSRVLEDDPEAAYTTRGGKIPIRWTSPEAIAYRKFTSASDVWSYGIVLWEVMSYGERPYWEMSNQDVIKAVDEGYRLPPPMDCPAALYQLMLDCWQKDRNNRPKFEQIVSILDKLIRNPGSLKIITSAAARPSNLLLDQSNVDITTFRTTGDWLNGVWTAHCKEIFTGVEYSSCDTIAKISTDDMKKVGVTVVGPQKKIISSIKALETQSKNGPVPV
B2: the binding result is given as “binds”.
